Paper doi:10.1101/2024.11.01.621267
No constants are given. Whether binding was seen depends on the method and setting. Binding seen in cells or lysates may run through a third protein. Some results given as binding are weak or reduced against the parent protein; the word gives no strength.

The chains behind the UniProt entries cited, without tags or fusion partners.
UniProt P11940: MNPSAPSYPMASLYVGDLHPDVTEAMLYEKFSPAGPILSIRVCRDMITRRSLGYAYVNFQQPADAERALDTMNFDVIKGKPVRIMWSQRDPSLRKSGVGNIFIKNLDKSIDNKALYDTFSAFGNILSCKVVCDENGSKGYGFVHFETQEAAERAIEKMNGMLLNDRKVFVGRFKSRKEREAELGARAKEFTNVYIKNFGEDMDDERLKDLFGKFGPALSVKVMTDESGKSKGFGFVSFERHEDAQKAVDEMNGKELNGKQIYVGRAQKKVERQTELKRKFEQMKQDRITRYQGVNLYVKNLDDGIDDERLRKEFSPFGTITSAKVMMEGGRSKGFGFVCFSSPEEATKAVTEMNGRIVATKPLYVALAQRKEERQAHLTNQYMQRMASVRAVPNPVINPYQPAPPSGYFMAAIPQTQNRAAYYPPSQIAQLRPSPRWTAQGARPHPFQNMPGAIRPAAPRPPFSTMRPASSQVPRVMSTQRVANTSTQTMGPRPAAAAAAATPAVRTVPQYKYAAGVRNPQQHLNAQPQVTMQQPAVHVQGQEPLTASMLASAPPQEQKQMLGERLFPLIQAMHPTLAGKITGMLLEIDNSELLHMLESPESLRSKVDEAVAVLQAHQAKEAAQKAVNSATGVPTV

Tests used:
Test in all cases: co-IP; anti-FLAG M2 magnetic beads, extract of HEK293 cells transfected with FLAG-tagged constructs; 4°C 2 hours; 50 mM Tris, 75 mM NaCl, 0.05% NP-40; blot with anti-RACK1 or anti-PABP1
FLAG-LARP4-W22A (human) = FLAG-LARP4-W22A (human) (UniProt Q71RC2)
FLAG-LARP4-W22F (human) = FLAG-LARP4-W22F (human) (UniProt Q71RC2)
[1] = target: FLAG-tagged LARP4-R1 (human) (UniProt Q71RC2)
[2] = target: FLAG-tagged LARP4-WT (human) (UniProt Q71RC2)
[3] = target: FLAG-tagged LARP4-ΔRIR (human) (UniProt Q71RC2)

Measured: binding

cytoplasmic poly(A)-binding protein (PABPC1/PABP), endogenous in HEK293 cells (from UniProt P11940 1-636)
binds: all assays above
